Construct, isoform or probe ends are uncertain for at least one entry. For part of these data: No signal at the amounts used counts as a negative. Where a protein sequence is shown, tags need not be part of it.
Experiments:
[1] = biological target: T1, Msn2 DBD (Saccharomyces cerevisiae) (UniProt P33748); assay: EMSA
T1 sequence: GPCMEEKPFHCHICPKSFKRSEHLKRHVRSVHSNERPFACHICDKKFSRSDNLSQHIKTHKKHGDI

[2] = biological target: T2, Msn2 IDR (Saccharomyces cerevisiae) (UniProt P33748); assay: EMSA
T2 sequence: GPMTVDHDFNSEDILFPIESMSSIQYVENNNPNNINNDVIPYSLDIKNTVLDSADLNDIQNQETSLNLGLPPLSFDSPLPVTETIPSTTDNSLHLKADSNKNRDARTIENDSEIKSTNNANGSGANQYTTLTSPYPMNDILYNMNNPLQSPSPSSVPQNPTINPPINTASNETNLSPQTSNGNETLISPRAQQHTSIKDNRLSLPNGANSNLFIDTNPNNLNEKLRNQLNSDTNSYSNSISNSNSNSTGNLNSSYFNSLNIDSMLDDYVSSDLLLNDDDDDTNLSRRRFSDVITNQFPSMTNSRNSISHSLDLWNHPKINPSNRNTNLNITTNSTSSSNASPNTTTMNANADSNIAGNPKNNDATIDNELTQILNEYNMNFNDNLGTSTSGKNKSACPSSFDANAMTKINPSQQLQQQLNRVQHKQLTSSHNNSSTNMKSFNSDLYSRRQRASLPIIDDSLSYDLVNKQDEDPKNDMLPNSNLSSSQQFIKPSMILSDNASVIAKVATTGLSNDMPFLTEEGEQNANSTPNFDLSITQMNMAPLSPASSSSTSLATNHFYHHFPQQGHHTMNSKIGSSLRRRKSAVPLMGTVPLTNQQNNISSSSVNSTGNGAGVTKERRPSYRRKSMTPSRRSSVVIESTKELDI

[3] = biological target: T3, Msn2 WT (Saccharomyces cerevisiae) (UniProt P33748); assay: mass photometry; details: 50 nM each, more uniform DNA+1P to DNA+3P, higher free protein
T3 sequence: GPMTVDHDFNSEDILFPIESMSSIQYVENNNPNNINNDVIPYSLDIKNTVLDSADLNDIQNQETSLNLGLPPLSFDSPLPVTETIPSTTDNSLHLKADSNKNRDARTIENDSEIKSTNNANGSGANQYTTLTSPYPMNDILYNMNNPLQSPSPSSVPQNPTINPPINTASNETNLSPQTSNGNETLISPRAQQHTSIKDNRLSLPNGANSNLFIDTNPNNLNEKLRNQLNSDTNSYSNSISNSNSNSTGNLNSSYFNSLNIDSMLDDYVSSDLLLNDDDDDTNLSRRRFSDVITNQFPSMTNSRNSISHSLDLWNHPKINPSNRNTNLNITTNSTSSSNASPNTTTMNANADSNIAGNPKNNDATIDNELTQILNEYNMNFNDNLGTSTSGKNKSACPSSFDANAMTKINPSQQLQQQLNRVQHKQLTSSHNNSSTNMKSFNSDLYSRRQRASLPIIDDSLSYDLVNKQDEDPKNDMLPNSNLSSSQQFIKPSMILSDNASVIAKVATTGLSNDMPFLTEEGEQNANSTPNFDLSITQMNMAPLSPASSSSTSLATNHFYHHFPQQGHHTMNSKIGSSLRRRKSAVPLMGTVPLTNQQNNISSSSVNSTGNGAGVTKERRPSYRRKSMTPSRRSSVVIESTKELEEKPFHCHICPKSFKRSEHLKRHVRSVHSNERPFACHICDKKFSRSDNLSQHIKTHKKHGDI

CCTGCCACCTACACATACTTCCTACACAACCTGAGTCGTATTAATTTCGCG / CGCGAAATTATACGACTCAAGTTGTGTAGGAAGTATGTGTAGGTGGCGAGG [51 bp DNA without motif]
binding result [1]: no binding | binding result [2]: binds | binding result [3]: binds

Source: doi:10.1101/2025.05.23.654710
